Some of the results follow.
Compound: Cc1cc(ccc1-c1ccccc1)C(=O)N1CCCN(CC1)C(=O)CCl [compound 10]
Assay: probe-labelled cysteine peptide fold change vs DMSO (competition) (log2 fold change); higher = less target engagement (more negative = stronger competition)
Details: 10 µM; THP-1; incubation time: 4 h
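Also: competitive profiling in live THP-1 cells: cysteine peptides tagged with an iodoacetamide desthiobiotin (IA-DTB) probe, intensity after compound treatment relative to DMSO-treated cells.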

Chains of the proteins cited; added tags and fusions are not shown. Lines headed by an entry give the natural chain unless they say otherwise; changes in a name come on top.
UniProt Q96K49: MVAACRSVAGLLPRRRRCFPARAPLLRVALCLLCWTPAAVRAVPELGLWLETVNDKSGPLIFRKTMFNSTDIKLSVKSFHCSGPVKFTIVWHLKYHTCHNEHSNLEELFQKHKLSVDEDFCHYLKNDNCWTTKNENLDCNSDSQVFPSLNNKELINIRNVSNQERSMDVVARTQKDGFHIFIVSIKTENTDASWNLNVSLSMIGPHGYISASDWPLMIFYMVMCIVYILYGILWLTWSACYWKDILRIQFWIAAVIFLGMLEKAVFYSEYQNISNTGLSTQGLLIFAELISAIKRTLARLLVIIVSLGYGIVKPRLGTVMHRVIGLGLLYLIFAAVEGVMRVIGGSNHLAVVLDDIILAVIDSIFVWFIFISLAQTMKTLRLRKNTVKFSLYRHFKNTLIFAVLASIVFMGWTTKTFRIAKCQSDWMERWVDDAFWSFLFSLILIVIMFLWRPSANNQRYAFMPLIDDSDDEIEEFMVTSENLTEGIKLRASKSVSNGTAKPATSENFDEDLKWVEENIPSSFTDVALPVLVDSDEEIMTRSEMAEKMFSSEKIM
UniProt Q9NUM4, whole entry, looked up: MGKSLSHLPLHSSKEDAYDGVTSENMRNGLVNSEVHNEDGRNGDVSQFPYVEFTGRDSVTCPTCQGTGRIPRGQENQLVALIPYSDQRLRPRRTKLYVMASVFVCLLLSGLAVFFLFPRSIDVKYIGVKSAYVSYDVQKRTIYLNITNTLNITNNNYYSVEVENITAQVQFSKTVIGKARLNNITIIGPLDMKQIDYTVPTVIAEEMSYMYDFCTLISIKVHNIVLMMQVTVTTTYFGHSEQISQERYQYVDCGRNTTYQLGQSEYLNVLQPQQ
UniProt O60603, whole entry, looked up: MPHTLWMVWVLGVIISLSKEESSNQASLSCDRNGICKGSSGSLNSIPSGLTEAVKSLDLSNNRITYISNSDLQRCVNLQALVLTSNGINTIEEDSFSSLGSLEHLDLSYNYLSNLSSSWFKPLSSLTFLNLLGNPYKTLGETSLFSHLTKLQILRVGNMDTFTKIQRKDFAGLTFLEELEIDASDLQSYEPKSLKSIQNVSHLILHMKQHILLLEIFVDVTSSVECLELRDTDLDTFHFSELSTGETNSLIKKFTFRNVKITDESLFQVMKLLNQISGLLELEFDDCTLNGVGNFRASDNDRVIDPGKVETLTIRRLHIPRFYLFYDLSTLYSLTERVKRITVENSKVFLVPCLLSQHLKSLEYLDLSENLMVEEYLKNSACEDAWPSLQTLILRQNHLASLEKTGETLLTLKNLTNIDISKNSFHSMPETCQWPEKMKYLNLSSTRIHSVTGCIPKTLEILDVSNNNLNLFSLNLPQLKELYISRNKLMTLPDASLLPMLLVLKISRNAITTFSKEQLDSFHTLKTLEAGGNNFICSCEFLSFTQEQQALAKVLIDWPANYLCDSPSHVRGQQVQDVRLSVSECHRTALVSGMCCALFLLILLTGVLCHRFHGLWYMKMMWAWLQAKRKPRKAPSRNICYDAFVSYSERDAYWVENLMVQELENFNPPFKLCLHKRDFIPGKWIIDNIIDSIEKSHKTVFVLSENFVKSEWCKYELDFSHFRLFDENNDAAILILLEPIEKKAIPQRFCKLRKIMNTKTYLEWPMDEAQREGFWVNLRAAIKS
UniProt Q68CZ2: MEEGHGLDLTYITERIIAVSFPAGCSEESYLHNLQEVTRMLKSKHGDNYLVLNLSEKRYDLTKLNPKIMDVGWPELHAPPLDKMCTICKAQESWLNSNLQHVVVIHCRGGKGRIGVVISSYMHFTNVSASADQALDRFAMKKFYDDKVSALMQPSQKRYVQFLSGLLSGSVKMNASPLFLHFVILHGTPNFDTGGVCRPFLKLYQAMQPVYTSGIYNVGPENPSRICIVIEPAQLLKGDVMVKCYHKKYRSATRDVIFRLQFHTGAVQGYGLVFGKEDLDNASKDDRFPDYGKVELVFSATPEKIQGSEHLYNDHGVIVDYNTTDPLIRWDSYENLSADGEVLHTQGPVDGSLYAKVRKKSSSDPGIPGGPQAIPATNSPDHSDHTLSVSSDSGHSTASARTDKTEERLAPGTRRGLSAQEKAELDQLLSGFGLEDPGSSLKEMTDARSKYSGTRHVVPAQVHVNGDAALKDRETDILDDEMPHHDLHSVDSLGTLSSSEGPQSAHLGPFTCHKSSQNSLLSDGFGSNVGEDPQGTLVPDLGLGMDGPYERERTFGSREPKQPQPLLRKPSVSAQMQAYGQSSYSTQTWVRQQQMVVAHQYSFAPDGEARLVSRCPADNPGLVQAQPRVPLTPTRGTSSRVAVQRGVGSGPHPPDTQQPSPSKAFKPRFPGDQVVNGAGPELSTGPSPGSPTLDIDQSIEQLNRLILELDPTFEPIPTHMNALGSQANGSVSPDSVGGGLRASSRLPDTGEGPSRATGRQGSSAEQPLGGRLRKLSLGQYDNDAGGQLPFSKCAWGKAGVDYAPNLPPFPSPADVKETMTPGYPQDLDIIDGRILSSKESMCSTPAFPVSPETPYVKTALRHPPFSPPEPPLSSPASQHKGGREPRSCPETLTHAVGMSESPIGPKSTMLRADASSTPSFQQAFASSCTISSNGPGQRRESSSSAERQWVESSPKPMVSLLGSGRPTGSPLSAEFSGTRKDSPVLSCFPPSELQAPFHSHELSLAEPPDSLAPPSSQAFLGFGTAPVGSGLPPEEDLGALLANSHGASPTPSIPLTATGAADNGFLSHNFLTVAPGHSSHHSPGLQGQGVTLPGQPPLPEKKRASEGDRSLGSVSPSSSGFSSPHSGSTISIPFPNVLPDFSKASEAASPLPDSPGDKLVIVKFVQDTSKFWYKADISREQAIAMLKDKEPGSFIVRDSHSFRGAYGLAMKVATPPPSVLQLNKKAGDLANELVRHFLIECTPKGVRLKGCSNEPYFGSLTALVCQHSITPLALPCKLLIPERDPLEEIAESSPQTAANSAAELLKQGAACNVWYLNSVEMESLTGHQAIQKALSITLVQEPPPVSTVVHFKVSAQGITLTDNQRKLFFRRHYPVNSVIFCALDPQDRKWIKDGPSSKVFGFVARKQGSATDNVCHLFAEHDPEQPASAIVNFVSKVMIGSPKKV
UniProt Q9C0C2: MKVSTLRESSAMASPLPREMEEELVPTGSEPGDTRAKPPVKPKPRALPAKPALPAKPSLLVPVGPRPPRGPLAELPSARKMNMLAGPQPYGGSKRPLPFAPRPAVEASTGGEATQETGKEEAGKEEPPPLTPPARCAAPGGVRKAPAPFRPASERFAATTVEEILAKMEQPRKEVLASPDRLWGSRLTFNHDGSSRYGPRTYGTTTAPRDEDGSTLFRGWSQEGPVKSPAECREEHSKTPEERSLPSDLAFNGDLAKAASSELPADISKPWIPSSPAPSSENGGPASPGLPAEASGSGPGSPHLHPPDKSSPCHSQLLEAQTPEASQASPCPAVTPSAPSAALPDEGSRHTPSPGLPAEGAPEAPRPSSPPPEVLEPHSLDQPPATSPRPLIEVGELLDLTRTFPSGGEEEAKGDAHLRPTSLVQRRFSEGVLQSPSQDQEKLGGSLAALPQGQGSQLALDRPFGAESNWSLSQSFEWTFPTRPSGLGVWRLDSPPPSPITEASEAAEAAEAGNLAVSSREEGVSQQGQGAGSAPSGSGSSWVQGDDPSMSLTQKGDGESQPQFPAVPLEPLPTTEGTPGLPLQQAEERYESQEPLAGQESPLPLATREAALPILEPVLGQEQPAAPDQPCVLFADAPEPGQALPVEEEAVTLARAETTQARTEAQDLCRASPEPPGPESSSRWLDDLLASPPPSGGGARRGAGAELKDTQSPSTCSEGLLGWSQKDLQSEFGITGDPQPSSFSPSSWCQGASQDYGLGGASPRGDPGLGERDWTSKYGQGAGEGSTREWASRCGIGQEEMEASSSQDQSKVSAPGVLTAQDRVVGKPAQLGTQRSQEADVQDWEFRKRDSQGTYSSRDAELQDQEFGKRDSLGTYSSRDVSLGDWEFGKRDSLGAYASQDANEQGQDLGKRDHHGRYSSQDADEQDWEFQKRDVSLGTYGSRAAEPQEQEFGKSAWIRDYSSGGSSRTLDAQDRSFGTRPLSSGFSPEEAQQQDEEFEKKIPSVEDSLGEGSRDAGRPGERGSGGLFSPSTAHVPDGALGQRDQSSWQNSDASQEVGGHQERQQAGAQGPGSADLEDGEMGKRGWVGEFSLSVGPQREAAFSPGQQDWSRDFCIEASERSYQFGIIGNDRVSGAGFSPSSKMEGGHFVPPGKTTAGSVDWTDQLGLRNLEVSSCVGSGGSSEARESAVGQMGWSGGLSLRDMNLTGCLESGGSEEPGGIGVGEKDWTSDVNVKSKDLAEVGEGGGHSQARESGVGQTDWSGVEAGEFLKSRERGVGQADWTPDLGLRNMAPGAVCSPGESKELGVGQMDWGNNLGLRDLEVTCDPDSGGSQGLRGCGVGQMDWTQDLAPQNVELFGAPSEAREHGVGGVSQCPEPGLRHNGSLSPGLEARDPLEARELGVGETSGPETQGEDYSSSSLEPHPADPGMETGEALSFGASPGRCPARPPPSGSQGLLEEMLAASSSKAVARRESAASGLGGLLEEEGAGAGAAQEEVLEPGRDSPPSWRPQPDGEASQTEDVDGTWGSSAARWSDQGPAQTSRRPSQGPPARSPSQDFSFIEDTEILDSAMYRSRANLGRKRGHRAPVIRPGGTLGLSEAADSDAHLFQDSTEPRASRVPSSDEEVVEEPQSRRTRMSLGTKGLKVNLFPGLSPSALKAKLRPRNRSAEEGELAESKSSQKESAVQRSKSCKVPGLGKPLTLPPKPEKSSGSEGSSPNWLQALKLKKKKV
UniProt Q92547, whole entry, looked up: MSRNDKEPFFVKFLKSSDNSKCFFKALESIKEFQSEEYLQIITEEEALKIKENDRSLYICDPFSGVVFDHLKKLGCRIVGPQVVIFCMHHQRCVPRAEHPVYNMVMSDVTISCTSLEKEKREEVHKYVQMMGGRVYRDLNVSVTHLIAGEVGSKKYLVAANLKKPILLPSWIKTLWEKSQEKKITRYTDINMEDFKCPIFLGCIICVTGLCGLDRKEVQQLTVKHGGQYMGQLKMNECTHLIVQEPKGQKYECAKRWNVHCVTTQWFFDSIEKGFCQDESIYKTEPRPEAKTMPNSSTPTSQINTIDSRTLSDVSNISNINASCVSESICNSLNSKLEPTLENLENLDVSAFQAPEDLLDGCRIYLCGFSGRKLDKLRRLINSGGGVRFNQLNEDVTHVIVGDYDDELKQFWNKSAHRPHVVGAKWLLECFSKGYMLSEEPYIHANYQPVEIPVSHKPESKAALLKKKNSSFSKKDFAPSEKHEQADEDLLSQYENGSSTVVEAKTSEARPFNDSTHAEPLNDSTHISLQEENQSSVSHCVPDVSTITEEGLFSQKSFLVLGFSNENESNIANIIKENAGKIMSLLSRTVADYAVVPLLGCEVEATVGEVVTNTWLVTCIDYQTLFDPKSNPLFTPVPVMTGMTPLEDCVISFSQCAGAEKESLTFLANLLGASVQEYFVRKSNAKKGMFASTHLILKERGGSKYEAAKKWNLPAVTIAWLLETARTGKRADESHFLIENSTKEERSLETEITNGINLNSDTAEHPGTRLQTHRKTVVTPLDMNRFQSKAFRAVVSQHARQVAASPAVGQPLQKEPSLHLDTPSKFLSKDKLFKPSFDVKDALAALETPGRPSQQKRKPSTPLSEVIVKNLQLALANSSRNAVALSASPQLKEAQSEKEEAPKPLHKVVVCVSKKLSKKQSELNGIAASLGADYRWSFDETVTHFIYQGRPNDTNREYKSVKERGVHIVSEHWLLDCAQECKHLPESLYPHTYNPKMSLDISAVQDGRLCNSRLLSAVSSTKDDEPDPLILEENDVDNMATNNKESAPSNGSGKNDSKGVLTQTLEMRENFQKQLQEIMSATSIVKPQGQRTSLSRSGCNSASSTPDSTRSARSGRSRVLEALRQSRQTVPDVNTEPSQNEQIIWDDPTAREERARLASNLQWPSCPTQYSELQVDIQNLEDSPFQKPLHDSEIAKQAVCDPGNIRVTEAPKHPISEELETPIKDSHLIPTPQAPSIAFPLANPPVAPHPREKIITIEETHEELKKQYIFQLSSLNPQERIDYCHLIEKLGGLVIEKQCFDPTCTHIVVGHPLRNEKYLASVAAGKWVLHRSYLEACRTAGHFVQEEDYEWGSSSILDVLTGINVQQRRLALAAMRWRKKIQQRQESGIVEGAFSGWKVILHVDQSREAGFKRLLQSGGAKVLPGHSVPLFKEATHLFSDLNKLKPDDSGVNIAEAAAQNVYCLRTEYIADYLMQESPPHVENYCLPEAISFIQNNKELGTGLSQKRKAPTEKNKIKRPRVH
UniProt Q8IY95: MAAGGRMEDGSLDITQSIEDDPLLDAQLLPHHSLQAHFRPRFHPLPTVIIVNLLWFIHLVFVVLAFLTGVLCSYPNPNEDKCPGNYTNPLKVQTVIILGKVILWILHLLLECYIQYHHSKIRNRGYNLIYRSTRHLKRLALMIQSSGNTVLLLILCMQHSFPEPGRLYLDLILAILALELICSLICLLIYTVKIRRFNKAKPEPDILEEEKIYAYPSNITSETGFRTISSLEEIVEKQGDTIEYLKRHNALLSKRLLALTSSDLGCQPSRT

Target	probe-labelled cysteine peptide fold change
TMED8_Q6PL24_161_KVSPPLMAPPCIWTFAK (UniProt Q6PL24)	-0.332
TMEM87B_Q96K49_139_NENLDCNSDSQVFPSLNNK (UniProt Q96K49)	-0.128
TMEM106B_Q9NUM4_61+64_DSVTCPTCQGTGR (UniProt Q9NUM4)	-0.0829
TNPO1_Q92973_205_SHAVACVNQFIISR (UniProt Q92973)	0.172
TMTC3_Q6ZXV5_794_CLLETLALAPHEEYIQR (UniProt Q6ZXV5)	-0.104
TLR2_O60603_564_VLIDWPANYLCDSPSHVR (UniProt O60603)	0.0776
TNS3_Q68CZ2_107_AQESWLNSNLQHVVVIHCR (UniProt Q68CZ2)	0.137
TNFAIP2_Q03169_512_LPEFSELQGCFREELMEALHLHLVK (UniProt Q03169)	-0.0762
TOX4_O94842_596_DWDNEYCSNECVVK (UniProt O94842)	-0.075
TONSL_Q96HA7_124_THLDIYDHCQSR (UniProt Q96HA7)	0.0757
TNS3_Q68CZ2_842_ESMCSTPAFPVSPETPYVK (UniProt Q68CZ2)	0.0033
TOP3B_O95985_522_HGIGTDASIPVHINNICQR (UniProt O95985)	0.214
TNKS1BP1_Q9C0C2_1373_EHGVGGVSQCPEPGLR (UniProt Q9C0C2)	-0.111
TMUB2_Q71RG4_236+240_SLNITDNCVIHCHR (UniProt Q71RG4)	-0.0247
TPI1_P60174_164_VAHALAEGLGVIACIGEKLDER (UniProt P60174)	-0.381
TMPPE_Q6ZT21_358_ALEGCSPDHTIILLAHQPLAAK (UniProt Q6ZT21)	-0.103
TOPBP1_Q92547_113_AEHPVYNMVMSDVTISCTSLEK (UniProt Q92547)	-0.144
TMPO_P42166_341_SGIQPLCPER (UniProt P42166)	-0.27
TNPO3_Q9Y5L0_580_ITECLSELCSVQVMALKK (UniProt Q9Y5L0)	-0.00843
TMEM192_Q8IY95_266_LLALTSSDLGCQPSRT (UniProt Q8IY95)	-0.151
TOPBP1_Q92547_911_VVVCVSK (UniProt Q92547)	-0.0487

2 entries picked at random from the list so far, as already listed:
Target	probe-labelled cysteine peptide fold change
TNKS1BP1_Q9C0C2_1373_EHGVGGVSQCPEPGLR (UniProt Q9C0C2)	-0.111
TLR2_O60603_564_VLIDWPANYLCDSPSHVR (UniProt O60603)	0.0776
